In PubChem BioAssay AID248 (DTP/NCI, 2004) one finds survivor count and T/C data, which are given here for 20 compounds.

The assay relates to L1210 leukemia ip in BDF1 mice, survival T/C. The experiment in a line: NCI In Vivo Anticancer Drug Screen. Data for tumor model L1210 Leukemia (intraperitoneal) in B6D2F1 (BDF1) mice. The note with it: T/C endpoint: mean survival time, higher T/C = longer survival.
The mark [1] stands for this setting: dose: 200.0 mg/kg/injection, schedule: Q01DX001 (ip), vehicle: carboxymethylcellulose (CMC).
Setting [2] is: dose: 400.0 mg/kg/injection, schedule: Q04DX003 (ip), vehicle: Klucel (hydroxypropylcellulose) (HPC).
[3] abbreviates: dose: 200.0 mg/kg/injection, schedule: Q04DX003 (ip), vehicle: saline.
Setting [4] is: dose: 400.0 mg/kg/injection, schedule: Q04DX003 (ip), vehicle: saline.
The mark [5] stands for this setting: dose: 150.0 mg/kg/injection, schedule: Q01DX001 (ip), vehicle: saline.
Setting [6] is: dose: 300.0 mg/kg/injection, schedule: Q01DX001 (ip), vehicle: saline.
Setting [7] is: dose: 400.0 mg/kg/injection, schedule: Q01DX009 (ip), vehicle: Klucel (hydroxypropylcellulose) (HPC).

Structures are written as SMILES. The list shows only some results of the screen, not a fair sample: it is rich in T/C values a quarter to a half above the control, in often repeated tests (any T/C) and in doses without a T/C. Other doses and runs of a compound stand elsewhere. T/C is the treated group as % of the vehicle group. Some entries give survivors of the animals treated and no T/C: the source holds a T/C of zero for them, seemingly a mark for toxic or unscored doses. Some doses without a T/C left all or most animals alive at the check, yet need not have been tolerated: survival well below the control is almost never listed, so the zero probably covers shortened survival too. Counts of survivors are from the toxicity check (mostly the fifth day) where no day follows; animals may have died later. Schedule codes are those of the source, taken here to give the interval after Q, in days (D) or hours (H), and the number of doses after X. Some entries were tested several times; the values are given in rising order. Some schedule codes hold Z or #, which are not explained here. Some structures stand for samples that the source files as different forms (salt, stereo form or complex); doses refer to the form tested. Signs of the kind (2×) count equal records among those shown. For survival time, the PubChem record calls one and a half times the control and up active, and a quarter to a half above the control has no call in these data; cut-offs in other NCI protocols can differ.

With `CCOc1ccc(/C=N/N=C(N)N)cc1OCC`, the survivor count reads like this: (dose: 500.0 mg/kg/injection, schedule: Q01DX Z (oral), vehicle: saline) 0 of 6 and 1 of 7; (dose: 1000.0 mg/kg/injection, schedule: Q01DX Z (oral), vehicle: saline) 0 of 7; (dose: 2000.0 mg/kg/injection, schedule: Q01DX Z (oral), vehicle: saline) 0 of 7; (dose: 4000.0 mg/kg/injection, schedule: Q01DX Z (oral), vehicle: saline) 0 of 7.
As to `Cc1cccc(NC(=O)N(CCCl)N=O)c1`, where the note is “dose: 2.6 mg/kg/injection, schedule: Q01DX009 (ip), vehicle: carboxymethylcellulose (CMC)”, the T/C is 131 % of control. Besides, the survivor count (dose: 100.0 mg/kg/injection, schedule: Q01DX001 (ip), vehicle: carboxymethylcellulose (CMC)) was 1 of 4; the survivor count under setting [1] was 0 of 4; the survivor count (dose: 400.0 mg/kg/injection, schedule: Q01DX001 (ip), vehicle: carboxymethylcellulose (CMC)) was 0 of 4.
As to `C[CH2][Pb]([CH2]C)([CH2]C)[O]C(=O)COc1ccccc1`, the survivor count is, setting by setting: (dose: 12.0 mg/kg/injection, schedule: Q01DX009 (ip), vehicle: Klucel (hydroxypropylcellulose) (HPC)) 2 of 6; (dose: 50.0 mg/kg/injection, schedule: Q04DX002 (ip), vehicle: Klucel (hydroxypropylcellulose) (HPC)) 0 of 3; (dose: 100.0 mg/kg/injection, schedule: Q04DX002 (ip), vehicle: Klucel (hydroxypropylcellulose) (HPC)) 1 of 3; (dose: 200.0 mg/kg/injection, schedule: Q04DX002 (ip), vehicle: Klucel (hydroxypropylcellulose) (HPC)) 0 of 3; (dose: 400.0 mg/kg/injection, schedule: Q04DX002 (ip), vehicle: Klucel (hydroxypropylcellulose) (HPC)) 0 of 3.
Consider `CC(=O)C1C(N2CC2)CC2C3CCC4=CC(=O)CCC4(C)C3CCC21C` (configuration not stated), for which the survivor count (dose: 400.0 mg/kg/injection, schedule: Q01DX001 (sc), vehicle: steroid suspending solution) is reported as 2 of 4.
Take `CC(C)(C)c1ccc(SC(=O)NCCCl)cc1`: the survivor count under setting [2] is given as 0 of 6.
Consider `CCC(C#N)=C1CCCCC1`, for which the survivor count is 6 of 6 under setting [3] and 6 of 6 under setting [4].
As to `CN(C)C(=O)c1cccc(COc2ccc(N)cc2Cl)c1`, the survivor count under setting [4] is reported as 4 of 6.
For the compound `COC1=C(F)C(=O)C(OC)=C(F)C1=O`, the survivor count reads like this: (dose: 10.0 mg/kg/injection, schedule: Q01DX001 (ip), vehicle: alcohol) 0 of 6; (dose: 20.0 mg/kg/injection, schedule: Q01DX001 (ip), vehicle: alcohol) 0 of 6; (dose: 40.0 mg/kg/injection, schedule: Q01DX001 (ip), vehicle: alcohol) 0 of 6; (dose: 75.0 mg/kg/injection, schedule: Q01DX001 (ip), vehicle: saline) 0 of 6; under setting [5], 0 of 6; under setting [6], 0 of 6.
For `CCCCCCCCCCC/C=N\[N+](C)(C)C`, the survivor count is on record as 0 of 6 (dose: 50.0 mg/kg/injection, schedule: Q01DX009 (ip), vehicle: Klucel (hydroxypropylcellulose) (HPC)); 0 of 6 (dose: 75.0 mg/kg/injection, schedule: Q01DX009 (ip), vehicle: Klucel (hydroxypropylcellulose) (HPC)); 0 of 6 (dose: 150.0 mg/kg/injection, schedule: Q01DX009 (ip), vehicle: Klucel (hydroxypropylcellulose) (HPC)); 0 of 6 (dose: 300.0 mg/kg/injection, schedule: Q01DX009 (ip), vehicle: Klucel (hydroxypropylcellulose) (HPC)).
In the case of `Cc1cc(=O)c2cc(Cc3ccc4[nH]c(C)cc(=O)c4c3)ccc2[nH]1`, the survivor count reads like this: (dose: 50.0 mg/kg/injection, schedule: Q01DX009 (ip), vehicle: saline) 0 of 6; (dose: 100.0 mg/kg/injection, schedule: Q01DX009 (ip), vehicle: saline) 0 of 6; (dose: 200.0 mg/kg/injection, schedule: Q01DX009 (ip), vehicle: saline) 0 of 6 and 6 of 6.
`NC(=O)c1cc([N+](=O)[O-])c(Cl)c([N+](=O)[O-])c1Cl`: the survivor count is 0 of 6 (dose: 16.0 mg/kg/injection, schedule: Q01DX015 (ip), vehicle: carboxymethylcellulose (CMC)) and 0 of 6 (dose: 32.0 mg/kg/injection, schedule: Q01DX015 (ip), vehicle: carboxymethylcellulose (CMC)).
As for `NC(Cc1c[nH]c2ccc(F)cc12)C(=O)O` (configuration not stated), the survivor count (dose: 400.0 mg/kg/injection, schedule: Q04DX003 (ip), vehicle: other) is listed as 5 of 6.
`COc1cc2c(cc1OC)C13CCN4CC5=CCOC6CC(=O)N2C1C6C5CC43` (configuration not stated) (tested in a mixture with another compound): the survivor count was 0 of 6 (dose: 100.0 mg/kg/injection, schedule: Q01DX001 (ip), vehicle: Klucel (hydroxypropylcellulose) (HPC)); 0 of 6 (dose: 100.0 mg/kg/injection, schedule: Q01DX001 (ip), vehicle: saline with Tween-80); 3 of 6 (dose: 100.0 mg/kg/injection, schedule: Q01DX009 (ip), vehicle: Klucel (hydroxypropylcellulose) (HPC)); 2 of 6 and 6 of 6 (dose: 100.0 mg/kg/injection, schedule: Q04DX003 (ip), vehicle: Klucel (hydroxypropylcellulose) (HPC)); 1 of 6 and 6 of 6 (dose: 100.0 mg/kg/injection, schedule: Q04DX003 (ip), vehicle: saline); 0 of 6 (dose: 115.0 mg/kg/injection, schedule: Q01DX009 (ip), vehicle: saline). The survivor count is 0 of 6 and 1 of 6 under setting [5]; 0 of 6 (dose: 170.0 mg/kg/injection, schedule: Q01DX009 (ip), vehicle: saline); 0 of 6 and 1 of 6 (dose: 200.0 mg/kg/injection, schedule: Q01DX001 (ip), vehicle: Klucel (hydroxypropylcellulose) (HPC)); 0 of 6 (dose: 200.0 mg/kg/injection, schedule: Q01DX009 (ip), vehicle: Klucel (hydroxypropylcellulose) (HPC)); 0 of 6 (dose: 200.0 mg/kg/injection, schedule: Q04DX003 (ip), vehicle: Klucel (hydroxypropylcellulose) (HPC)); 0 of 6 under setting [3]. In addition, the survivor count is 0 of 6 (3×) under setting [6]; 0 of 6 (2×) (dose: 400.0 mg/kg/injection, schedule: Q01DX001 (ip), vehicle: Klucel (hydroxypropylcellulose) (HPC)); 0 of 6 under setting [7]; 0 of 6 and 6 of 6 under setting [2]; 0 of 6 under setting [4].
As for `CC(/C=N/NC(N)=O)=N\NC(N)=O`, the survivor count (dose: 120.0 mg/kg/injection, schedule: Q01DX Z (ip), vehicle: saline) is 5 of 6.
On to `O=S(=O)(O)c1cccc2nsnc12`, for which, under setting [7], the survivor count is given as 0 of 6.
As to `CCCCNC(=O)N(CC)C(=NCC)c1ccc(NC(=O)c2ccc(C(=O)Nc3ccc(C(=NCC)N(CC)C(=O)NCCCC)cc3)cc2)cc1`, the survivor count was 0 of 6 (dose: 50.0 mg/kg/injection, schedule: Q01DX015 (ip), vehicle: methylcellulose (MC)); 0 of 6 (dose: 100.0 mg/kg/injection, schedule: Q01DX015 (ip), vehicle: methylcellulose (MC)); 0 of 6 (dose: 200.0 mg/kg/injection, schedule: Q01DX015 (ip), vehicle: methylcellulose (MC)); 0 of 6 (dose: 400.0 mg/kg/injection, schedule: Q01DX015 (ip), vehicle: methylcellulose (MC)).
Turning to `CCOC=Nc1ccc(-n2cnc3c(Cl)ncnc32)cc1C`, under setting [1], the survivor count is on record as 2 of 4.
On to `CN(C)C=NCCOCc1ccccc1`, for which, under setting [4], the survivor count was 0 of 6.
`CCCCCCCCCCCC(=O)Nc1cc(C(C)C)ccc1C`: the survivor count by setting is: under setting [3], 6 of 6; under setting [4], 3 of 6.
Regarding `CCCCCCCCCCCCP(=O)(O)O`, under “dose: 300.0 mg/kg/injection, schedule: Q01DX001 (ip), vehicle: other”, the survivor count is 0 of 6.
